Measurements as given in paper PMC12548433.
Results are given in words; binding and its absence hold for the method and conditions named. In cells and extracts the contact can be indirect. For part of these data: Binding calls can cover weak binding; strength is not graded here. For part of these data: Sequences can lack the tags named with a protein.

Experiments:
Assay in all cases: co-IP
[1] = target: T1, FLAG-tagged leader (L) protein of Theiler's murine encephalomyelitis virus (Theiler's murine encephalomyelitis virus) (UniProt P13899)
T1 sequence: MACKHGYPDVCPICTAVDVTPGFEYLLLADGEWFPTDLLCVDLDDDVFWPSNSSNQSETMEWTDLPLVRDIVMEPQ

[2] = target: T2, ribonucleic acid export 1 (RAE1) (human (endogenous in 293T)) (UniProt P78406)
T2 sequence: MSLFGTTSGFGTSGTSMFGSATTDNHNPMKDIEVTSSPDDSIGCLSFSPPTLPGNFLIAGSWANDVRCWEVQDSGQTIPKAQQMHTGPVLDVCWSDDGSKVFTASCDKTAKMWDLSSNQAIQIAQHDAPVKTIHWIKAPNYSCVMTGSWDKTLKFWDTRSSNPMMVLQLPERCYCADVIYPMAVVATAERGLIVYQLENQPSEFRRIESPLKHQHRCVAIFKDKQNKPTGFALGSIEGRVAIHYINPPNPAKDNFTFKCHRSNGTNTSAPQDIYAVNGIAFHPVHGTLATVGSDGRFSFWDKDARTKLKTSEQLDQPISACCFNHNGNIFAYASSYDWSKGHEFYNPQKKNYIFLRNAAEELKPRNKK

[3] = target: FLAG-tagged leader (L) protein of Boone cardiovirus (Boone cardiovirus)

nucleoporin 98 (NUP98) (human (endogenous in 293T))
binding [1]: no binding

GFP fused to the BCV L^62-81 NPC targeting peptide (Boone cardiovirus) (domain or fragment)
binding [2]: binds

B1: ribonucleic acid export 1 (RAE1) (protein, UniProt P78406 1-368)
chain: MSLFGTTSGFGTSGTSMFGSATTDNHNPMKDIEVTSSPDDSIGCLSFSPPTLPGNFLIAGSWANDVRCWEVQDSGQTIPKAQQMHTGPVLDVCWSDDGSKVFTASCDKTAKMWDLSSNQAIQIAQHDAPVKTIHWIKAPNYSCVMTGSWDKTLKFWDTRSSNPMMVLQLPERCYCADVIYPMAVVATAERGLIVYQLENQPSEFRRIESPLKHQHRCVAIFKDKQNKPTGFALGSIEGRVAIHYINPPNPAKDNFTFKCHRSNGTNTSAPQDIYAVNGIAFHPVHGTLATVGSDGRFSFWDKDARTKLKTSEQLDQPISACCFNHNGNIFAYASSYDWSKGHEFYNPQKKNYIFLRNAAEELKPRNKK
binding [3]: binds
